For experiment [1], the target named is T1, Aldo-keto reductase 1C3 (AKR1C3), overexpressed in OE33 cells (OE33 AKR1C3) (UniProt P42330).
T1 sequence: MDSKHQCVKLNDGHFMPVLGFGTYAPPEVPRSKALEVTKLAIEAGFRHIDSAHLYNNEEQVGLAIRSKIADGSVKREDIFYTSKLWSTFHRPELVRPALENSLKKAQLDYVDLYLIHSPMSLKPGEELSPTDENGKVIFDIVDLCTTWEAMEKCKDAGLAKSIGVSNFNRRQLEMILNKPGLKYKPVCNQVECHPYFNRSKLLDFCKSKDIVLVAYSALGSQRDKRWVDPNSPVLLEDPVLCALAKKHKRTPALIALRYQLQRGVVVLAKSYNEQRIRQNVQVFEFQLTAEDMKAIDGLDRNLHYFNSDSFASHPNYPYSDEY
Put plainly: co-IP; EAC cell lysates (OE33 VEC/AKR1C3, SKGT-4 shNT/shAKR1C3) incubated with IP antibody (anti-AKR1C3, anti-HSPA5) overnight at 4 °C, protein A/G Dynabeads, three washes with lysis buffer, western blot.

By UniProt entry, the sequences of proteins in these tests, tags left out. Where a name states a change or a piece, a line headed by the entry shows the natural chain unless it says otherwise. Chains listed by the source or under a name are the forms on record and can include a tag or linker. Residues count along the entry.
UniProt P11021: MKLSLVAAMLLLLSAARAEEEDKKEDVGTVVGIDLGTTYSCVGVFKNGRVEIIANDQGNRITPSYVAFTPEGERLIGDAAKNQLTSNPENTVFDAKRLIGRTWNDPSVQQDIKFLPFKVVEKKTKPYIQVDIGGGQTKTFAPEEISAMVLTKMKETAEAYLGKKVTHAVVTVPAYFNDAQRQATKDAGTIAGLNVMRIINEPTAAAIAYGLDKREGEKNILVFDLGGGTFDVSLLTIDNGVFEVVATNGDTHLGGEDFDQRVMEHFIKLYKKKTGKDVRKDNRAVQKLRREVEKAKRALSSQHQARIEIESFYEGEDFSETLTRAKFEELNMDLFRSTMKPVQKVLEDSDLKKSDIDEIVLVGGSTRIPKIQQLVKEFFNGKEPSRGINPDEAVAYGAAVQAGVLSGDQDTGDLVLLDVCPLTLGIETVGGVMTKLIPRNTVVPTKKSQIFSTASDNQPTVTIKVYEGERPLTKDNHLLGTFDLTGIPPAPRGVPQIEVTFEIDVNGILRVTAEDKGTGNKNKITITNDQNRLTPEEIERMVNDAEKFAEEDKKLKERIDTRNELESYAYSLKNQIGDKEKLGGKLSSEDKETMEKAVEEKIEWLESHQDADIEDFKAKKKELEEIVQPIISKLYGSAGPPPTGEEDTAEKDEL
Heat-shock-protein family A member 5 (HSPA5), endogenous in EAC cells (human (endogenous in OE33 and SKGT-4)): residues 19-654 of P11021
HA-tagged truncated HSPA5, nucleotide-binding domain (125 - 399 aa): residues 125-399 of P11021
UniProt P19474: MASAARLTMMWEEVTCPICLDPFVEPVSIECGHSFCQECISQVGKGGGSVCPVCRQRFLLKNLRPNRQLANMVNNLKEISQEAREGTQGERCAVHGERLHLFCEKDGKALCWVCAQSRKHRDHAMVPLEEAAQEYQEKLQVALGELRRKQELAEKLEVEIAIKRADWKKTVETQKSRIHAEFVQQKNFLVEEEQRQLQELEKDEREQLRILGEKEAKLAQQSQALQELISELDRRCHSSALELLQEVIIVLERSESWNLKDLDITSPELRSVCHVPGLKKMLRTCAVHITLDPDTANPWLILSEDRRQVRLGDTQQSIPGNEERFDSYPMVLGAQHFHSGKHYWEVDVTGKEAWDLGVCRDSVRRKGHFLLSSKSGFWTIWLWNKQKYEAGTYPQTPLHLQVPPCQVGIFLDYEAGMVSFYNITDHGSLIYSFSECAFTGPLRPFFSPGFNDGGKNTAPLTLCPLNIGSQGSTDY

The target in experiment [2] is T2, Aldo-keto reductase 1C3 (AKR1C3), endogenous in SKGT-4 cells (human (endogenous in SKGT-4)) (UniProt P42330).
T2 sequence: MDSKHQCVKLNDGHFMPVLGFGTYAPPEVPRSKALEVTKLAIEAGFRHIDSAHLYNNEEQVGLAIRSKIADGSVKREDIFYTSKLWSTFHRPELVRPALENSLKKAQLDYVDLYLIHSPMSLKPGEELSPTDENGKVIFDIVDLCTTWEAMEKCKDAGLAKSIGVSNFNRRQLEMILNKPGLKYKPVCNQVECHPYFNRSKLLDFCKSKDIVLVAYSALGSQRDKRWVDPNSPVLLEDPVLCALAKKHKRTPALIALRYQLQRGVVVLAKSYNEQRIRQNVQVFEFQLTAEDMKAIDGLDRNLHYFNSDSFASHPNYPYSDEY
Described as above.

In experiment [3] the target is Heat-shock-protein family A member 5 (HSPA5), endogenous in EAC cells (human (endogenous in OE33 and SKGT-4)) (UniProt P11021). Described as above.
Experiment [4] has as its target HA-tagged truncated HSPA5, nucleotide-binding domain (125 - 399 aa) (UniProt P11021). Put plainly: co-IP; HA-tagged truncated HSPA5 co-transfected with Flag-tagged AKR1C3 into HEK293T cells; IP with anti-HA antibody, western blot. Background: Immunoblotting shows a protein as a band on a membrane.

No constants are given. Whether binding was seen depends on the method and setting. Binding seen in cells or lysates may run through a third protein. Some entries that bind do so weakly or less than the wild type. For some of these results: Sequences can lack the tags named with a protein.

On to “Heat-shock-protein family A member 5 (HSPA5), endogenous in EAC cells (from UniProt P11021 19-654)”, for which the binding result in experiment [1] and in experiment [2] was “binds” each time.

As to “Tripartite motif-containing protein 21 (TRIM21), endogenous in EAC cells (from UniProt P19474 1-475)”, the binding entry in experiment [3] is “binds”.

B1: Flag-tagged AKR1C3, full length (protein, UniProt P42330 1-323)
chain: MDSKHQCVKLNDGHFMPVLGFGTYAPPEVPRSKALEVTKLAIEAGFRHIDSAHLYNNEEQVGLAIRSKIADGSVKREDIFYTSKLWSTFHRPELVRPALENSLKKAQLDYVDLYLIHSPMSLKPGEELSPTDENGKVIFDIVDLCTTWEAMEKCKDAGLAKSIGVSNFNRRQLEMILNKPGLKYKPVCNQVECHPYFNRSKLLDFCKSKDIVLVAYSALGSQRDKRWVDPNSPVLLEDPVLCALAKKHKRTPALIALRYQLQRGVVVLAKSYNEQRIRQNVQVFEFQLTAEDMKAIDGLDRNLHYFNSDSFASHPNYPYSDEY
B1: in experiment [4], the binding result is given as “binds”.

The record behind these values is publication PMC12222831.
